Measurements taken from PMC3832495.
Results are given in words; binding and its absence hold for the method and conditions named. Some results given as binding are weak or reduced against the parent protein; the word gives no strength.

Experiments:
C3d, P01024 [1] = assay: ELISA; competition: C3b or C3dg (methods; C3d in results) 5 µg/ml immobilised; constant CFHR2 (5 µg/ml, 0.07 µM) and increasing factor H (5–50 µg/ml, 0.033–0.33 µM); factor H detected with factor H/1-4 antiserum, CFHR2 with mAb A72; both purified; settings: remark: other sources report otherwise
C3d, P01024 [2] = assay: ELISA; competition: C3b or C3dg (methods; C3d in results) 5 µg/ml immobilised; constant factor H (10 µg/ml, 0.07 µM) and increasing CFHR2 (2.5–40 µg/ml, 0.035–0.56 µM); factor H detected with factor H/1-4 antiserum, CFHR2 with mAb A72; both purified; settings: remark: other sources report otherwise

binding (C3d, P01024 [1]): binds
binding (C3d, P01024 [2]): binds
B1: Factor H, P08603 19-1231 (protein)
chain: EDCNELPPRRNTEILTGSWSDQTYPEGTQAIYKCRPGYRSLGNVIMVCRKGEWVALNPLRKCQKRPCGHPGDTPFGTFTLTGGNVFEYGVKAVYTCNEGYQLLGEINYRECDTDGWTNDIPICEVVKCLPVTAPENGKIVSSAMEPDREYHFGQAVRFVCNSGYKIEGDEEMHCSDDGFWSKEKPKCVEISCKSPDVINGSPISQKIIYKENERFQYKCNMGYEYSERGDAVCTESGWRPLPSCEEKSCDNPYIPNGDYSPLRIKHRTGDEITYQCRNGFYPATRGNTAKCTSTGWIPAPRCTLKPCDYPDIKHGGLYHENMRRPYFPVAVGKYYSYYCDEHFETPSGSYWDHIHCTQDGWSPAVPCLRKCYFPYLENGYNQNYGRKFVQGKSIDVACHPGYALPKAQTTVTCMENGWSPTPRCIRVKTCSKSSIDIENGFISESQYTYALKEKAKYQCKLGYVTADGETSGSITCGKDGWSAQPTCIKSCDIPVFMNARTKNDFTWFKLNDTLDYECHDGYESNTGSTTGSIVCGYNGWSDLPICYERECELPKIDVHLVPDRKKDQYKVGEVLKFSCKPGFTIVGPNSVQCYHFGLSPDLPICKEQVQSCGPPPELLNGNVKEKTKEEYGHSEVVEYYCNPRFLMKGPNKIQCVDGEWTTLPVCIVEESTCGDIPELEHGWAQLSSPPYYYGDSVEFNCSESFTMIGHRSITCIHGVWTQLPQCVAIDKLKKCKSSNLIILEEHLKNKKEFDHNSNIRYRCRGKEGWIHTVCINGRWDPEVNCSMAQIQLCPPPPQIPNSHNMTTTLNYRDGEKVSVLCQENYLIQEGEEITCKDGRWQSIPLCVEKIPCSQPPQIEHGTINSSRSSQESYAHGTKLSYTCEGGFRISEENETTCYMGKWSSPPQCEGLPCKSPPEISHGVVAHMSDSYQYGEEVTYKCFEGFGIDGPAIAKCLGEKWSHPPSCIKTDCLSLPSFENAIPMGEKKDVYKAGEQVTYTCATYYKMDGASNVTCINSRWTGRPTCRDTSCVNPPTVQNAYIVSRQMSKYPSGERVRYQCRSPYEMFGDEEVMCLNGNWTEPPQCKDSTGKCGPPPPIDNGDITSFPLSVYAPASSVEYQCQNLYQLEGNKRITCRNGQWSEPPKCLHPCVISREIMENYNIALRWTAKQKLYSRTGESVEFVCKRGYRLSSRSHTLRTTCWDGKLEYPTCAKR
